Data as given in PubChem BioAssay AID686938 (Drosophila RNAi Screening Center, 2013).
In all, the deposit lists about 23,000 reagents; this is an unselected part of those that have a named target and a result. In the full data, 75 (0.33%) got an active call. 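Raw plate signals without normalisation; calls rest on plate z-scores that were not deposited; ratio present for only 364 wells.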 A number with no mark means an inactive call. Names joined by + are all predicted targets of the reagent. Not given: the dose of the treatment.

- Screen: 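Fly genes required for calcium entry once internal stores are emptied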 (primary screen)
- Cells: Drosophila S2R+ cells
- Knock-down reagent: long dsRNA against Drosophila genes, about 0.25 µg dsRNA per well, roughly 10,000 cells
- Duration: 5 days of knock-down before the calcium assay
- Challenge: thapsigargin (SERCA pump blocker) to empty calcium stores; entry signal taken 4 min after adding it
- Measured: 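Duplicate raw fluo-4 intensities per well from a plate reader, at rest and four minutes after thapsigargin emptied calcium stores; entry-to-rest ratio filled for only some wells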
- Direction: calcium entry signal: higher = stronger calcium signal after store depletion; resting calcium signal: higher = higher resting calcium signal
- Rule for the call: 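Hit if the duplicate-averaged plate z-score for entry over resting signal is under −3; wells with weak total dye signal (Fmax z < −2) or more than 5 off-targets removed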
- Meaning of the calls: active = strongly reduced calcium entry; inactive = no strong reduction

Target gene | dsRNA | calcium entry signal, replicate 1 (fluorescence units) | calcium entry signal, replicate 2 (fluorescence units) | resting calcium signal, replicate 1 (fluorescence units) | resting calcium signal, replicate 2 (fluorescence units)
CG2906 | DRSC06841 | 3.29e7 | 3.33e7 | 1.49e7 | 1.37e7
CG8516 | DRSC16437 | 3.13e7 | 3.14e7 | 1.51e7 | 1.65e7
Sytbeta | DRSC10009 | 4.64e7 | 6.71e7 | 2.29e7 | 2.43e7
Sytbeta | DRSC10351 | 4.16e7 | 4.37e7 | 1.82e7 | 1.61e7
CG14455 | DRSC11712 | 2.24e7 | 3.58e7 | 1.11e7 | 1.45e7
CG8299 | DRSC07139 | 3.40e7 | 3.26e7 | 1.47e7 | 1.60e7
orb2 + CG43783 | DRSC10540 | 5.12e7 | 3.12e7 | 3.48e7 | 1.43e7
orb2 + CG43783 | DRSC10541 | 3.25e7 | 4.62e7 | 1.61e7 | 2.02e7
orb2 + CG43783 | DRSC10542 | 5.00e7 | 3.44e7 | 3.39e7 | 1.31e7
LeuRS | DRSC00581 | 2.38e7 | 2.46e7 | 1.26e7 | 1.17e7
CG12674 | DRSC00348 | 3.03e7 | 3.32e7 | 1.40e7 | 1.55e7
ncd | DRSC17012 | 3.02e7 | 3.68e7 | 1.49e7 | 1.74e7
Snx17 | DRSC02884 | 5.06e7 | – | 2.53e7 | –
CheA86a | DRSC12839 | 2.23e7 | 3.24e7 | 1.06e7 | 1.48e7
CG15550 | DRSC15088 | 3.63e7 | 6.21e7 | 1.94e7 | 2.65e7
Asap | DRSC06493 | 4.97e7 | 4.34e7 | 2.18e7 | 1.87e7
Asap | DRSC06830 | 4.25e7 | 3.28e7 | 1.74e7 | 1.65e7
CG13540 | DRSC04182 | 2.68e7 | 2.67e7 | 1.45e7 | 1.23e7
Pbgs | DRSC09718 | 2.72e7 | 5.04e7 | 1.46e7 | 2.28e7
CG5906 | DRSC10557 | 2.77e7 | 3.69e7 | 1.53e7 | 1.61e7
CG4133 | DRSC00639 | 3.25e7 | 2.95e7 | 1.75e7 | 1.39e7
CG4133 | DRSC23122 | 4.01e7 | 3.17e7 | 1.77e7 | 1.50e7
ClC-c | DRSC10499 | 4.50e7 | 4.82e7 | 2.18e7 | 3.43e7
spz4 | DRSC02410 | 3.99e7 | 4.62e7 | 1.95e7 | 2.00e7
CG8407 | DRSC07167 | 1.70e7 | 3.13e7 | 1.01e7 | 1.20e7
CG43308 | DRSC05893 | 2.13e7 | 3.71e7 | 1.04e7 | 1.75e7
CG30022 | DRSC22405 | 1.82e7 | 2.79e7 | 1.04e7 | 1.17e7
S-Lap2 | DRSC10628 | 2.75e7 | 3.39e7 | 1.42e7 | 1.59e7
CG5418 | DRSC02857 | 4.48e7 | 2.78e7 | 1.85e7 | 1.29e7
Gr59d | DRSC22553 | 4.23e7 | 3.17e7 | 1.95e7 | 1.29e7
CG7236 | DRSC03037 | 2.72e7 | 2.61e7 | 1.45e7 | 1.36e7
CG34135 + CG11768 | DRSC12702 | 4.17e7 | 5.51e7 | 1.91e7 | 2.52e7
myo | DRSC17174 | 4.64e7 | 4.66e7 | 2.02e7 | 2.12e7
Tdh | DRSC11788 | 3.98e7 | 4.80e7 | 1.66e7 | 2.96e7
Tsp74F | DRSC10508 | 5.25e7 | 8.24e7 | 2.37e7 | 3.25e7
shrb | DRSC07061 | 2.39e7 | 2.02e7 | 1.42e7 | 1.34e7
GatA | DRSC16956 | 3.21e7 | 2.57e7 | 1.66e7 | 1.22e7
Inx2 | DRSC18783 | 4.04e7 | 4.52e7 | 1.95e7 | 1.91e7
CG9641 | DRSC00721 | 4.04e7 | – | 2.07e7 | –
eloF | DRSC15162 | 3.64e7 | 4.37e7 | 1.77e7 | 2.19e7
